# Measured values reported in publication PMC4923944.
# By UniProt entry, the sequences of proteins in these tests, tags left out.
# UniProt P12004: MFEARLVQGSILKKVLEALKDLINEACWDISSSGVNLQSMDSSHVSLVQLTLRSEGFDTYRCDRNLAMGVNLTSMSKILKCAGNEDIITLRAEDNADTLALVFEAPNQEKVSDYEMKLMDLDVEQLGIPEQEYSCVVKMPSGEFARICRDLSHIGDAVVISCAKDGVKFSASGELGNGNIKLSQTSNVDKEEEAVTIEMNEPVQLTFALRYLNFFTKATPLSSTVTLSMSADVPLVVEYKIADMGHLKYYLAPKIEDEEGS
# Results are given in words; binding and its absence hold for the method and conditions named. Binding seen in cells or lysates may run through a third protein. Some binding calls cover weakened binding; strength is not graded here. For part of these data: Where a sequence is shown, tags or fusion partners need not be part of it.
# T1: TRAIP, endogenous (human (endogenous in 293T)) (UniProt Q9BWF2)
# T1 sequence: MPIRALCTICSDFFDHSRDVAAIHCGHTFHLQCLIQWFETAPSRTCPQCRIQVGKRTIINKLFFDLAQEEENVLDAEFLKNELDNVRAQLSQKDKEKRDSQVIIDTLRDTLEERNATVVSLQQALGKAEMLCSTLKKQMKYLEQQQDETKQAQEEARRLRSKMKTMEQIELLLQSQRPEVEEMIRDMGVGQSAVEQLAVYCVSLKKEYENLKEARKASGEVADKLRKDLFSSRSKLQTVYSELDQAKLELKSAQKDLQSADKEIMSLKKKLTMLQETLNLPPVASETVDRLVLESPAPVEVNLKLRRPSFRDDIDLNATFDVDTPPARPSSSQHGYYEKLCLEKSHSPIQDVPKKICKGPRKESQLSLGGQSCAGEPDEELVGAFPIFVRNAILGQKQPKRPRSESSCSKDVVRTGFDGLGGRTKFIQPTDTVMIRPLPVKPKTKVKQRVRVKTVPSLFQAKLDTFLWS
# T2: GST-TRAIP fusion protein (human) (UniProt Q9BWF2)
# T2 sequence: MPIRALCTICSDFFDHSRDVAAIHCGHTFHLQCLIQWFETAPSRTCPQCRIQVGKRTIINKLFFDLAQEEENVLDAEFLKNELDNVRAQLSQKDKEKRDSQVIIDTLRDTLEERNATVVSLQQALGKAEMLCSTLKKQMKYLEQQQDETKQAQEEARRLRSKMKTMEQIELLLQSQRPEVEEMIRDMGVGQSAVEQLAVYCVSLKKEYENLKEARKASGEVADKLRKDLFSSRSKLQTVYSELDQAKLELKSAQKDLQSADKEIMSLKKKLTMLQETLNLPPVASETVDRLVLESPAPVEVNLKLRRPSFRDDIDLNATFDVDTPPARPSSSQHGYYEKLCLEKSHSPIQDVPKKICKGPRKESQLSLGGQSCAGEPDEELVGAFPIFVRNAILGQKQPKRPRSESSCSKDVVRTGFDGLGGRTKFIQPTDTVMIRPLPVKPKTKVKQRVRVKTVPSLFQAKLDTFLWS
# B1: Flag-epitope tagged TRAIP (fused with streptavidin binding peptide and S-protein tag) (protein, UniProt Q9BWF2 1-469)
# chain: MPIRALCTICSDFFDHSRDVAAIHCGHTFHLQCLIQWFETAPSRTCPQCRIQVGKRTIINKLFFDLAQEEENVLDAEFLKNELDNVRAQLSQKDKEKRDSQVIIDTLRDTLEERNATVVSLQQALGKAEMLCSTLKKQMKYLEQQQDETKQAQEEARRLRSKMKTMEQIELLLQSQRPEVEEMIRDMGVGQSAVEQLAVYCVSLKKEYENLKEARKASGEVADKLRKDLFSSRSKLQTVYSELDQAKLELKSAQKDLQSADKEIMSLKKKLTMLQETLNLPPVASETVDRLVLESPAPVEVNLKLRRPSFRDDIDLNATFDVDTPPARPSSSQHGYYEKLCLEKSHSPIQDVPKKICKGPRKESQLSLGGQSCAGEPDEELVGAFPIFVRNAILGQKQPKRPRSESSCSKDVVRTGFDGLGGRTKFIQPTDTVMIRPLPVKPKTKVKQRVRVKTVPSLFQAKLDTFLWS
# Assays:
# [1] = target: T1, TRAIP, endogenous (human (endogenous in 293T)); experiment: co-IP; endogenous proteins; 293T cells with or without HU (5 mM, 4 h); immunoprecipitation with anti-TRAIP sera or pre-bleed control; western blot
# [2] = target: T2, GST-TRAIP fusion protein (human); experiment: pull-down; GST-TRAIP or GST on GST beads incubated with 293T lysate at 4 °C for 4 h; washed with NETN buffer; western blot; only the target purified
# His-tagged PCNA = His-tagged PCNA (UniProt P12004); experiment: pull-down; purified His-PCNA on nickel beads incubated for 4 h at 4 °C with NETN lysates of 293T cells transiently transfected with Flag-tagged TRAIP or its mutants; western blot; only the target purified
Molecule,binding [1],binding [2],binding (His-tagged PCNA)
"proliferating cell nuclear antigen (PCNA), endogenous (from UniProt P12004 1-261)",binds,binds,–
B1,–,–,binds
